These are yes or no findings as the source states them, for the method shown. Binding seen in cells or lysates may run through a third protein. Here binding means that the protein was enriched with, or labelled near, the bait; the list need not be complete.
Molecular target: Flag-TMEM209 (transmembrane protein 209) overexpressed in MHCC-97H cells (UniProt Q96SK2)
Experiment: affinity purification with mass spectrometry; lysate of Flag-TMEM209 overexpressing MHCC-97H cells immunoprecipitated with Flag or IgG antibody; 10% SDS-PAGE, Coomassie staining, mass spectrometry

The chains behind the UniProt entries cited, without tags or fusion partners.
UniProt Q96SK2: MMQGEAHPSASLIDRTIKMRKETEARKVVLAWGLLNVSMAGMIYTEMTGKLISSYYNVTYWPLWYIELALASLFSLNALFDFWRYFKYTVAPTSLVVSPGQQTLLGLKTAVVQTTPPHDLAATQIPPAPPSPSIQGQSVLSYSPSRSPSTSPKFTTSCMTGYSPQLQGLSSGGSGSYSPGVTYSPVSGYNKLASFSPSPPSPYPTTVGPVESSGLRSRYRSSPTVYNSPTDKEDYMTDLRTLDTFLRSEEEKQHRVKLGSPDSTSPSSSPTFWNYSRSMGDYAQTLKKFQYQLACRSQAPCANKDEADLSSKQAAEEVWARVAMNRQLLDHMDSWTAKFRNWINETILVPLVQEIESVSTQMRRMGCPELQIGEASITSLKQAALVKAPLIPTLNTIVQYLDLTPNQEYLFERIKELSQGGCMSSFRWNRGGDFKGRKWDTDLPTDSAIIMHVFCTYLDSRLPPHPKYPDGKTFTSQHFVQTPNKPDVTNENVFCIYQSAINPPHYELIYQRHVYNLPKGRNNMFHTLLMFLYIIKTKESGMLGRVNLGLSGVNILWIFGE
UniProt Q14974: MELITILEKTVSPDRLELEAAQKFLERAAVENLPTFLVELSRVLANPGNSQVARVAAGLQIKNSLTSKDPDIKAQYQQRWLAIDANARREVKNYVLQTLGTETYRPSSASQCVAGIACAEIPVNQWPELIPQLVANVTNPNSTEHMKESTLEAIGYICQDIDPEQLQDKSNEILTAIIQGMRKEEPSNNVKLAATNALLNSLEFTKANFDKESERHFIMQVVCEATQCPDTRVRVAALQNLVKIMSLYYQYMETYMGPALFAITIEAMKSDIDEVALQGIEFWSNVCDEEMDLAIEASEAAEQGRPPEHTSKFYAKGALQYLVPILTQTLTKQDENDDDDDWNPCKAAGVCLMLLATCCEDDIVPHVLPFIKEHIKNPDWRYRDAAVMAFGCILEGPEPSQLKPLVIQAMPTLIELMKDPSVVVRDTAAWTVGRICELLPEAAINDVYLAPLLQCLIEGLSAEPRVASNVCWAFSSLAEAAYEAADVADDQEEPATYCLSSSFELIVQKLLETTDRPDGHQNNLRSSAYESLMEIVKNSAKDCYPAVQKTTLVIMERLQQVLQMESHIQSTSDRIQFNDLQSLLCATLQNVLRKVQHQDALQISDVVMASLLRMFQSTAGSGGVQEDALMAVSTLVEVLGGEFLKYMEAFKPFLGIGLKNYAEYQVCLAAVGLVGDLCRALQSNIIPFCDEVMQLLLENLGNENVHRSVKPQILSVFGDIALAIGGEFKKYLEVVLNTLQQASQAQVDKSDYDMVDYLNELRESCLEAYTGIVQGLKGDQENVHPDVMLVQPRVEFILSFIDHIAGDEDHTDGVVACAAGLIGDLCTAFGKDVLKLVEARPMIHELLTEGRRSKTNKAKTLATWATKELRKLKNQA

With “Karyopherin-β1 (KPNB1), endogenous in MHCC-97H and Huh7 cells (from UniProt Q14974 1-876)” the binding was “binds”.

From article PMC11484822
